Test results as given in PubChem BioAssay AID1347076 (National Center for Advancing Translational Sciences (NCATS), 2019).
Among all 400,000 compounds or so, about 13,000 (3.2%) were called active. Inconclusive means that the source gave no clear call. Such entries were picked first, then a sample of the others. Calls come from the whole dose curve; as a rule, active = well fitted cell-killing curve with a large enough effect; inconclusive = small, poorly fitted or top-dose-only effect, or effect the other way; inactive = flat fitted curve, though single readings scatter. Where the call is inconclusive, the potency comes from a doubtful curve fit.

assay: qHTS assay for MDR1-selective chemotherapeutics: Primary screen using the drug-selected MDR subline cells KB-V1; conditions: KB-V1 MDR cells viability, CellTiter-Glo, 72 h; activity change, negative = cytotoxicity: at 46.1 µM (top of the series); note: nearly all actives have a fitted effect of over 60% in size
In short: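 In this primary screen, KB-V1 cells overexpressing P-gp are incubated with library compounds (lowest to highest concentration) for 72 h at 37 degrees C before a luminescent ATP viability read.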
% is set by controls: 0 for no effect and ±100 for the full control effect; potency is the fitted concentration of half-maximal effect.

| Compound | Potency | activity change, negative = cytotoxicity |
| --- | --- | --- |
| CCOc1ccccc1-c1nc2c(s1)CCc1onc(-c3ccc(OC)cc3)c1-2 | inactive | – |
| O=S1(=O)CCO[C@H]2Cc3ccccc3[C@H]2N1Cc1cccc(C(F)(F)F)c1 | inconclusive: 29.1 µM [cytotoxic, partial curve, poor fit] | – |
| CC[C@@]1(O)C(=O)OCc2c1cc1n(c2=O)Cc2cc3c(CN(C)C)c(O)ccc3nc2-1 | inconclusive: 18.4 µM [cytotoxic, partial curve, poor fit] | – |
| COc1ccc(-c2cc(C(=O)Nc3ccccc3F)on2)cc1 | inconclusive: 20.6 µM [rising, single point] | – |
| O=c1oc2cc(Oc3c([N+](=O)[O-])cc(C(F)(F)F)cc3[N+](=O)[O-])ccc2c2c1CCCC2 | inconclusive: 18.4 µM [cytotoxic, single point] | – |
| CC(=O)c1c(C)[nH]c(C(=O)OCc2nnc(-c3ccccc3)o2)c1C | inconclusive: 5.17 µM [cytotoxic, full curve] | – |
| COC(=O)c1ccccc1NC(=O)c1cccc(NC(=O)c2ccc(Br)o2)c1C | inconclusive: 20.6 µM [cytotoxic, partial curve, poor fit] | – |
| CCCCn1c(CN(Cc2ccccc2)Cc2ccccc2)nc2c1c(=O)n(C)c(=O)n2C | inconclusive: 20.6 µM [cytotoxic, single point] | – |
| COc1ccc(N=Cc2c(O)[nH]c3ccccc23)cc1OC | active: 6.51 µM | – |
| CCCCC(=O)N1CCc2cc(OC)c(OC)cc2C1COc1ccc(C(=O)OCC)cc1 (centres undefined) | – | inconclusive: -4.32% |
| Cc1ccc(C(=O)CSC2=C(C#N)C(c3ccco3)CC(=O)N2)c(C)c1 (centres undefined) | active: 14.6 µM | – |
| CN(C)CCCN(C(=O)c1ccc(S(=O)(=O)N2CCCC2)cc1)c1nc2ccc(Br)cc2s1 | inactive | – |
| CCOc1c(OC(C)=O)ccc(/C=C/c2ccc3cccc(OC)c3n2)c1[N+](=O)[O-] | active: 16.4 µM | – |
| Cc1cccc(C(=O)n2nc(C)c(S(=O)(=O)N3CCOCC3)c2C)c1 | inactive | – |
| CC(C)CNC(=O)C1CCN(Cc2ccc(OCc3ccccc3)cc2)CC1 | inconclusive: 9.2 µM [cytotoxic, partial curve] | – |
| COc1ccc(-c2nc3n(n2)C(c2ccccc2OC)C(C(=O)Nc2cccnc2)=C(C)N3)cc1 (centres undefined) | inactive | – |
| CC1(C)CC(=O)C2=C(C1)N(c1ccc(F)cc1)C(N)=C(C#N)C2c1cccs1 (centres undefined) | inconclusive: 20.6 µM [cytotoxic, single point] | – |
| Cc1ccc(Cc2cnc(NC(=O)/C(C#N)=C/c3ccc(-c4ccc([N+](=O)[O-])cc4)o3)s2)cc1 | inconclusive: 35.5 µM [cytotoxic, single point] | – |
| O=C(C1CCC(CNS(=O)(=O)c2ccc(Br)s2)CC1)N1CCN(c2ccc(F)cc2)CC1 (centres undefined) | – | inconclusive: -16% |
| CCCC1/C(=N/O)CC(c2ccccc2)NC1c1ccccc1 (centres undefined) | inconclusive: 29.1 µM [cytotoxic, single point] | – |
| NN=C1c2cc(S(=O)(=O)NCCO)ccc2-c2ccc(S(=O)(=O)NCCO)cc21 | inactive | – |
| CCOc1ccc(NC(=O)Cn2c(=O)n(CCCCC(=O)NCCc3ccc(Cl)cc3)c(=O)c3ccccc32)cc1 | inconclusive: 32.6 µM [rising, single point] | – |
| Cc1ccc(Nc2nc(N)c([N+](=O)[O-])c(NCc3ccco3)n2)cc1 | inconclusive: 29.1 µM [cytotoxic, single point] | – |

| Compound | Potency | activity change, negative = cytotoxicity |
| --- | --- | --- |
| Cc1ccc(OCc2cc(C(=O)N3CCN(c4ccccc4)CC3)no2)cc1C | inconclusive: 32.6 µM [cytotoxic, partial curve, poor fit] | – |
| CCCC(C(=O)NC1=NCCS1)c1ccccc1 (centres undefined) | inactive | – |
| O=C(NCCC1=CCCCC1)C(c1ccccc1)c1ccccc1 | inconclusive: 20.6 µM [cytotoxic, single point] | – |
| COc1ccc(OC)c(C(=O)N2CCC(n3nccc3NC(=O)CC(C)C)CC2)c1 | inactive | – |
| Cc1ccc2nc(-c3cccnc3)c(NC3CCCCC3)n2c1 | inactive | – |
| CCCOc1c(OC)cccc1C1CC(=O)Nc2cc3c(cc21)OCCO3 (centres undefined) | inconclusive: 8.2 µM [cytotoxic, partial curve, poor fit] | – |
| CCCCc1nnc(NC(=O)C2CC(=O)N(c3ccc(C)cc3)C2)s1 (centres undefined) | – | inconclusive: -20.4% |
| CC(C)(C)c1cc(NC(=O)CSc2nnc(NCc3ccccc3)s2)n(-c2ccccc2)n1 | inconclusive: 16.4 µM [rising, partial curve, poor fit] | – |
| Cc1ccc(NS(=O)(=O)c2ccc3c(c2)N(C)C(=O)CC(=O)N3C)cc1Cl | inconclusive: 5.8 µM [rising, full curve, poor fit] | – |
| C=CCN(C(=O)CNC(=O)c1ccco1)C(C(=O)NC1CCCC1)c1ccc(OC)cc1 (centres undefined) | inconclusive: 13 µM [cytotoxic, partial curve, poor fit] | – |
| C#CCOCCOCCOCCNc1nc(N2CCN(C(=O)[C@H](CCCN=C(N)N)n3cc(C(N)[C@@H](C)CC)nn3)CC2)nc(N2CCN(C(=O)[C@H](CCC(=O)O)n3cc([C@@H](N)CO)nn3)CC2)n1 (some centres undefined) | inconclusive: 29.1 µM [cytotoxic, single point] | – |
| CC[N+]1(CC)CC2CCC(C)(C1)C2(C)C (centres undefined) | inconclusive: 0.82 µM [cytotoxic, full curve, poor fit] | – |
| CCN(CC)c1ccc(/C=C/c2sc3ccccc3[n+]2CCCCI)cc1 | inconclusive: 16.4 µM [cytotoxic, single point] | – |
| CCC(CC)C(=O)N(C)c1c(C)nc2c(OCc3ccc(F)c(F)c3)cccn12 | inactive | – |
| CC(OC(=O)c1cc2sccc2n1C)C(=O)NCc1ccc(F)cc1 (centres undefined) | inconclusive: 14.6 µM [cytotoxic, partial curve] | – |
| Cc1ccc(-n2c(=O)c3ccc(C(=O)NCc4ccco4)cc3n(CC(=O)Nc3ccc(C)c(F)c3)c2=O)cc1 | inactive | – |
| O=c1oc(Nc2ccc(F)cc2)nc2ccccc12 | inactive | – |
| COc1ccccc1/C=C/C=N/n1c(-c2n[nH]c3c2CCC3)n[nH]c1=S | inconclusive: 29.1 µM [cytotoxic, single point] | – |
| Cc1ccc(S(=O)(=O)N2CCCC2)cc1C(=O)N1CCC(C)CC1 | inconclusive: 29.1 µM [cytotoxic, single point] | – |
| Nc1nc(-c2cccnc2)nn1C(=O)c1ccccc1Cl | inconclusive: 29.1 µM [rising, single point] | – |
| COc1ccccc1N(CC(=O)N1CCOCC1)S(C)(=O)=O | inconclusive: 18.4 µM [rising, single point] | – |
| COc1cccc(-c2cnc(C(O)c3ccc(C)cc3C)[nH]2)c1 (centres undefined) | inactive | – |
| Nc1nc2ccccc2n1C(=O)c1cccs1 | inconclusive: 16.4 µM [cytotoxic, single point] | – |

At a glance, part of the list above.

| Compound | Potency | activity change, negative = cytotoxicity |
| --- | --- | --- |
| COc1ccccc1/C=C/C=N/n1c(-c2n[nH]c3c2CCC3)n[nH]c1=S | inconclusive: 29.1 µM [cytotoxic, single point] | – |
| Cc1ccc(S(=O)(=O)N2CCCC2)cc1C(=O)N1CCC(C)CC1 | inconclusive: 29.1 µM [cytotoxic, single point] | – |
| Nc1nc(-c2cccnc2)nn1C(=O)c1ccccc1Cl | inconclusive: 29.1 µM [rising, single point] | – |
| COc1ccccc1N(CC(=O)N1CCOCC1)S(C)(=O)=O | inconclusive: 18.4 µM [rising, single point] | – |

Going on with the list.

| Compound | Potency | activity change, negative = cytotoxicity |
| --- | --- | --- |
| CNc1cccnc1C=NNC(N)=S | inconclusive: 4.61 µM [cytotoxic, full curve] | – |
| CC(Oc1ccc(Cl)cc1)C(=O)Nc1cccc(S(=O)(=O)N2CCOCC2)c1 (centres undefined) | inconclusive: 29.1 µM [rising, single point] | – |
| CCCC(O)(CCN1CCOCC1)c1ccc(Cl)cc1 (centres undefined) | inactive | – |
| Cc1ccc(C)c(N2CCN(C(=O)Cc3c(C(=O)O)c(C)cn3C)CC2)c1 | – | inconclusive: 31.1% |
| CCOC(=O)C1CCCN(C(=S)Nc2ccc(F)cc2)C1 (centres undefined) | inconclusive: 20.6 µM [cytotoxic, partial curve, poor fit] | – |
| O=C(O)c1ccccc1Cc1ccc2c(c1)CCCC2 | inactive | – |
| CC(=O)c1c(C)[nH]c(C(=O)CSc2ccc(F)cc2)c1C | inconclusive: 29.1 µM [cytotoxic, single point] | – |
| COc1ccc(CN(C(=O)c2ccc3c(c2)OCCO3)C(C(=O)NC2CCCCC2)c2ccc3ncccc3c2)cc1 (centres undefined) | inactive | – |
| NC(Cc1ccc(C(F)(F)F)cc1)c1csc(Nc2cc(Oc3ccccc3)ncn2)n1 (centres undefined) | inconclusive: 29.1 µM [cytotoxic, single point] | – |
| CCC(CC)NC(=O)Cc1ccc(F)cc1 | inactive | – |
| Cc1ccc(C(C)C)c(Oc2nnnn2-c2ccccc2)c1 | inconclusive: 29.1 µM [cytotoxic, single point] | – |
| CCOC(=O)C1CCN(C2=NC(=O)/C(=C/c3ccc(O)cc3)S2)CC1 | inactive | – |
| COc1ccc(CN2C(=O)C(CC(=O)NCCc3ccccn3)CC(C(=O)N3CCCCCC3)=C2C)cc1 (centres undefined) | – | inconclusive: 0% |
| CCOC(=O)[C@]12Cc3c(cc(OC)c(OC)c3OC)[C@H]1N(C1CCCCC1)C(=O)c1cc(OC)ccc12 | active: 4.61 µM | – |
| NNC(=O)C1=NOC2COC3(CCN(c4ncccn4)CC3)OCC12 (centres undefined) | inactive | – |
| Cc1ccc(S(=O)(=O)c2nc(Nc3ccccc3N3CCOCC3)sc2Cl)cc1 | active: 10.3 µM | – |
| COc1cccc(C2c3[nH]c4ccccc4c3CCN2CCCn2cccn2)c1 (centres undefined) | inactive | – |
| CCOc1cc(C(=O)NC(CC(=O)O)c2ccc(OC3CCCC3)cc2)cc(OCC)c1OCC (centres undefined) | inactive | – |
| O=C(COc1ccc(-c2ccccc2)cc1)NNC(=O)NC1CCCCC1 | inconclusive: 29.1 µM [rising, partial curve, poor fit] | – |
| COc1ccc(NC(=O)C2CCC(N3C(=O)C4CCCCC4C3=O)CC2)cc1 (centres undefined) | inconclusive: 16.4 µM [cytotoxic, partial curve] | – |
| CCC(NS(=O)(=O)c1ccc(C)cc1)C(=O)N1CCOCCOCCOCCOCC1 (centres undefined) | inactive | – |
| CC1(C)CC(=O)C(CC(=O)NC(=O)NCc2ccccc2)=C(O)C1 | inconclusive: 25.9 µM [cytotoxic, single point] | – |
| COc1ccc(NC(=O)CSc2nnc3c4c(nc(-c5ccccc5)n23)CC(C)(C)OC4)cc1 | active: 2.91 µM | – |
